Source: patent US20050075398A1, “Neuroprotectin D1 protects against cellular apoptosis, stroke damage, alzheimer's disease and retinal diseases” (priority 2003, published 2005)
At least one compound was matched to its structure with a doubt left.

Columns and labels:
[1] = test system: B94 gene expression; assay: HGU133 GeneChip DNA array in HN cells: B94; type: cell-based, human; conditions: Aβ42 25 μM, DHA 50 nM or NPD1 50 nM, 18 h, nsc = no significant change
Text: (§1) RNA Isolation and Spectral Quality. Brain tissues were rapidly processed, and total RNA was extracted using Trizol reagent (Invitrogen, Carlsbad, Calif.). Total RNA quality and abundance were profiled using RNA Nano LabChips (Caliper Technologies, Mountainview, Calif.; Agilent Technologies, Palo Alto, Calif.).
(§2) Probe Synthesis and GeneChip Hybridization. Biotinylated antisense cRNAs were synthesized from cDNA using the Superscript Choice System (Invitrogen) and Enzo Biorray High Yield RNA Transcript Labeling kits according to the manufacturer's protocols (Affymetrix) and as described in Colangelo, V., Schurr, J., Ball, M. J., Pelaez, R. P., Bazan, N. G., Lukiw, W. J. (2002) J. Neurosci. Res., 70: 462-473; and Lukiw, W. J. (2004) Neurochem. Research, 29: 1287-1297. Probes were hybridized against HU133Av2 GeneChip DNA arrays that interrogate approximately 33,000 full-length […] genes and expressed sequence tag (EST) clusters. […]
(§3) GeneChip Data and Statistical Analysis. […] Volcano plots were plotted representing total gene expression patterns as a function of fold-change as compared to expression patterns of age-matched controls as plotted against p, as calculated by an analysis of variance (ANOVA). […] Statistical significance was analyzed using a two-way factorial analysis of variance (p, ANOVA; Statistical Analysis System; SAS Institute, Cary, N.C. ).

[2] = test system: Bax gene expression; assay: HGU133 GeneChip DNA array in HN cells: Bax; type: cell-based, human; conditions: Aβ42 25 μM, DHA 50 nM or NPD1 50 nM, 18 h, nsc = no significant change
[3] = test system: Aβ40 and Aβ42 peptide secretion; assay: Aβ40 and Aβ42 peptide secretion by aging HN cells (Western immunoblot of medium); type: cell-based, human; conditions: aging HN cells cultured up to 8 weeks; DHA 50 nM or IL-1β 10 ng/ml continuously in medium
Protocol: Human Neural (HN) Cells. HN cells in primary culture, starting as primary spheroids (CC-2599, Clonetics, Walkersville, Md.), were grown in neural progenitor maintenance medium (NPMM) containing human epidermal and fibroblast growth factor, gentamicin/amphotericin (G/A1000), and neural survival factor-1 for up to 8 weeks. […] (Data not shown).
Additions of IL-1β and DHA to the Growth Medium. After 1 week of HN cell growth, IL-1β (10 ng/ml) or DHA (50 nM) was added to the NPMM culture medium.
To determine the effect of cytokine-mediated stress on aging HN cells, AP peptide release was assayed in the continuous presence in the culture medium of IL-1β, an inducer of reactive oxygen species (ROS) generation and oxidative stress as described in Lynch, A. M., Moore, M., Craig, S., Lonergan, P. E., Martin, D. S., Lynch, M. A. (2003) J. Biol. Chem., 278: 51075-51084; and Kaur, J., Dhaunsi, G. S., Turner, R. B. (2004) Med. Princ. Pract., 13: 26-29. Parallel experiments in aging HN cells were performed in the presence of control neuro-progenitor maintenance medium (NPMM) and the continuous presence of NPMM+DHA.

[4] = test system: Bfl-1(A1) protein; assay: Western analysis of Bfl-1(A1) in HN cells; type: cell-based, human; conditions: 50 nM, p<0.05
Protocol: (§4) Western Analysis. Total protein was extracted, and 25 μg of protein was analyzed by Western blots using human Bcl-2, Bfl-1 (A1) and actin antibodies. […] Human specific anti-Bfl-1(A1)[Cat. No. sc-8351] was obtained from Santa Cruz Biotechnology (Santa Cruz, Calif.). For Western analysis, signal-intensity data were gathered by phosphorimaging onto molecular imaging screens (FUJIFILM) for 3-36 h using a Typhoon Molecular Imager system (Amersham Biosciences) as described in Bazan and Lukiw, 2002.
(§5) To confirm the above changes in Bcl-2 and Bfl-1(A1), Western analysis was performed using anti-Bcl-2, anti-Bfl-1(A1), and anti-actin primary antibodies (B3170 Sigma Life Science, sc-8351 Santa Cruz, and A2103 Sigma, respectively). The results of the Western analysis confirm up-regulation of Bcl-2 and Bfl-1(A1) anti-apoptotic proteins over actin controls in DHA- and NPD1-treated cells.

[5] = test system: Bcl-2 protein; assay: Western analysis of Bcl-2 in HN cells; type: cell-based, human; conditions: 50 nM, p<0.05
Protocol: as §4, §5

[6] = test system: IL-1β gene expression; assay: HGU133 GeneChip DNA array in HN cells: IL-1β; type: cell-based, human; conditions: Aβ42 25 μM, DHA 50 nM or NPD1 50 nM, 18 h, nsc = no significant change
[7] = test system: COX-2 gene expression; assay: HGU133 GeneChip DNA array in HN cells: COX-2; type: cell-based, human; conditions: Aβ42 25 μM, DHA 50 nM or NPD1 50 nM, 18 h, nsc = no significant change
[8] = test system: CEX-1 gene expression; assay: HGU133 GeneChip DNA array in HN cells: CEX-1; type: cell-based, human; conditions: Aβ42 25 μM, DHA 50 nM or NPD1 50 nM, 18 h, nsc = no significant change
[9] = test system: IL-1β-induced NF-κB activation; assay: EMSA of NF-κB in IL-1β-exposed human neural progenitor cells; type: cell-based; conditions: HN progenitor cells; concentrations up to 30 μM
Protocol: (§6) Human neural (HN) progenitor cells in primary culture. HN cells were grown to ˜70% confluence (˜50,000 cells per 3.5-cm diameter well) in 6-well COSTAR plates at 37° C., 5% CO2/20% O2/75% N2 in humidified air at 1 atm (normoxic conditions) in NPMM medium (Clonetics CC-4241) supplemented with hFGF, NSF-1, hEGF, GA-1000, as described by the manufacturer (Clonetics, Walkersville, Md.). HN cells tested negative for HIV-1, hepatitis B and C, mycoplasma, bacteria, yeast, and fungi, and positive for the glial and neuronal markers GFAP, MAP2, and β-tubulin III (Clonetics). […]
(§7) Electrophoretic mobility-shift assay (EMSA) of human AP1, HIF-1α, NF-κBp50/p65, and STAT-1α. Nuclear protein extracts (NPXTs) were prepared from one to three 3.5 cm-diameter wells of HN cells and quantitated. NPXTs (5 μg) derived from HN cells were incubated with[γ-^32P]-ATP (˜3000 Ci/mmol)-end-labeled AP1, HIF-1α, NF-κκBp50/p65, or STAT-1α consensus and mutant oligonucleotides in 5-μl volumes, reacted for 30 min on ice, analyzed on 5% or 10% acrylamide/90 mM Tris-borate pH 8.4, 1 mM EDTA (TBE) gels, dried onto 2-mm Whatman filter paper at 80° C. for 2 h, and phosphorimaged using a Typhoon Variable Mode Imager (Amersham Pharmacia Biotech, Piscataway, N.J. ).

[10] = test system: Bik gene expression; assay: HGU133 GeneChip DNA array in HN cells: Bik; type: cell-based, human; conditions: Aβ42 25 μM, DHA 50 nM or NPD1 50 nM, 18 h, nsc = no significant change
Text: as §1, §2, §3

[11] = test system: IL-1β-induced HIF-1α activation; assay: EMSA of HIF-1α in IL-1β-exposed human neural progenitor cells; type: cell-based; conditions: HN progenitor cells
Protocol: as §6, §7

[12] = test system: TNFα gene expression; assay: HGU133 GeneChip DNA array in HN cells: TNFα; type: cell-based, human; conditions: Aβ42 25 μM, DHA 50 nM or NPD1 50 nM, 18 h, nsc = no significant change
[13] = test system: ARPE-19 cells; assay: Hoechst staining, TNFα/H2O2 oxidative stress-induced apoptosis; type: cell-based, human
Protocol: ARPE-19 cell culture and chemicals: ARPE-19 cells (L. M. Hjelmeland, ATCC # CRL-2302) were grown and maintained in DMEM-F12 medium supplemented with 10% FBS and incubated at 37° C. with a constant supply of 5% CO2. ARPE-19 cells are spontaneously transformed human retinal pigment epithelial cells that conserve cellular biological and functional properties. All chemicals were purchased from Sigma Chemical Co. (St. Louis, Mo.) unless otherwise indicated.
Hoechst staining: ARPE-19 cells were loaded with 2 μM Hoechst dissolved in a Locke's solution (Promega, Madison, Wis.) and incubated one h at 37° C. before imaging. Cells were then washed once with PBS and viewed using a Nikon DIAPHOT 200 microscope under UV fluorescence. Images were recorded by a Hamamatsu Color Chilled 3CCD camera and Photoshop 5.0 software, as described in Mukherjee, P. K., DeCoster, M. A., Campbell, F. Z., Davis, R. J. & Bazan, N. G. (1999) J. Biol. Chem. 274:6493-6498.
Several experimental conditions that result in reproducible oxidative-stress-induced apoptosis in ARPE-19 cells were tested. One condition chosen was the combination of TNFα with H2O2, both in relatively low concentrations. Typically 10 ng/ml of TNFα and 400-800 μM H2O2 led to marked increase in Hoechst-positive cells (Data not shown). Neither TNFα nor H2O2 alone triggered a significant effect under these conditions. (Data not shown). […]

CC/C=C\C/C=C\C/C=C\C/C=C\C/C=C\C/C=C\CCC(=O)O [DHA, docosahexaenoic acid, reference compound]
B94 gene expression, fold change over untreated controls [1]: nsc | Bax gene expression, fold change over untreated controls [2]: nsc | effect on Aβ peptide (Aβ40 and Aβ42) secretion [3]: suppressed | Bfl-1(A1) protein increase over controls, normalized with actin [4]: up-regulation | Bcl-2 protein increase over controls, normalized with actin [5]: up-regulation | IL-1β gene expression, fold change over untreated controls [6]: nsc | COX-2 gene expression, fold change over untreated controls [7]: nsc | CEX-1 gene expression, fold change over untreated controls [8]: nsc | modulation of NF-κB induction by IL-1β [9]: ineffective | Bik gene expression, fold change over untreated controls [10]: nsc | modulation of HIF-1α induction by IL-1β ([11]; concentrations up to 30 μM): ineffective | effect on HIF1-α ([11]; ten-fold higher concentrations): not affected | TNFα gene expression, fold change over untreated controls [12]: Nsc | inhibition of oxidative stress (TNFα/H2O2)-induced Hoechst-positive cells / apoptosis ([13]; 50 nM added with TNFα 10 ng/ml plus H2O2 (400-800 μM), 14 h): very potent inhibitor | number of Hoechst-positive cells ([13]; pre-incubation 72 h with BSA (3.35 μM)-DHA (6.7 μM), serum-starved 1 h, TNFα/H2O2 14 h): greatly reduced number
